From publication PMC10313047, “During heat stress in Myxococcus xanthus, the CdbS PilZ domain protein, in concert with two PilZ-DnaK chaperones, perturbs chromosome organization and accelerates cell death” (PLOS Genetics, 2023)
Results are given in words; binding and its absence hold for the method and conditions named. Some binding calls cover weakened binding; strength is not graded here. Tags and fused reporters may be left off the sequences shown.

Target: DnaB (BACTH fusions) (Myxococcus xanthus) (UniProt Q1D285)
Test: two-hybrid; BACTH (bacterial adenylate cyclase-based two-hybrid); proteins fused to T25 and T18; blue colonies: interaction, white: none; two biological replicates

B1: DnaB (BACTH fusions) (protein, UniProt Q1D285 1-456)
chain: MENVHEFREGRKVHEDLAAERAVLGAVLADNTLIAAVGEVVHPEDFSSPAHAQIFEAMLKLDGQSRQVDHLTLAEELKVLGHLVSVGGPAYLMRLDQVVPIASNAVQYAQIVKDQAIRRRLAQAGREIQDLASQETGELEVLLDEAERKVFLLAEKKREGDLRPVSELMEHTLDLLDKMKAAATGITGLSTGYIDLDNQLTGLHAGELIILAARPGIGKTSFAMNIAVHAALKENKAVGIFSLEMPADQLLMRLLASTARVDMKKLRGGRLTPHDEEKFQEMAGALYNAPIYIDDSGGLSPFDLRAKARRVKQRDPRLSLIVIDYLQLMHQKGKVESRQLEVAEISRALKQLAKELEVPIIALSQLSRKVEDRKDGKPLLSDLRESGSIEQDADVVMFIHRETSDEAGPDGQPAQQSNTVIPVELIIAKQRNGPIGSIDLVFLAEYTRFESRSRSE
  binding: binds
